Measured values published in PMC10238178.
No constants are given. Whether binding was seen depends on the method and setting. In cells and extracts the contact can be indirect. Binding calls can cover weak binding; strength is not graded here.

T1: OTUD6B (endogenous, ESCC cells) (human (endogenous in KYSE30 and KYSE450)) (UniProt Q8N6M0)
T1 sequence: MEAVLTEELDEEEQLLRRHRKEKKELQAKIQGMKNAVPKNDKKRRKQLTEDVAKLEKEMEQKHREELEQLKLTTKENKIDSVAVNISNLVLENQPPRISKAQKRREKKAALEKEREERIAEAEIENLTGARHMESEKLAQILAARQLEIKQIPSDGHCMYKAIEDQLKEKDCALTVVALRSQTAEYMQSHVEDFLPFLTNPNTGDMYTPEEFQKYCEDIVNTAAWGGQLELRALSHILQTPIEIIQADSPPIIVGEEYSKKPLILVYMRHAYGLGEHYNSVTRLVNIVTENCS

B1: USP47 (transfected) (enzyme, UniProt Q96K76 1-1375)
chain: MVPGEENQLVPKEDVFWRCRQNIFDEMKKKFLQIENAAEEPRVLCIIQDTTNSKTVNERITLNLPASTPVRKLFEDVANKVGYINGTFDLVWGNGINTADMAPLDHTSDKSLLDANFEPGKKNFLHLTDKDGEQPQILLEDSSAGEDSVHDRFIGPLPREGSGGSTSDYVSQSYSYSSILNKSETGYVGLVNQAMTCYLNSLLQTLFMTPEFRNALYKWEFEESEEDPVTSIPYQLQRLFVLLQTSKKRAIETTDVTRSFGWDSSEAWQQHDVQELCRVMFDALEQKWKQTEQADLINELYQGKLKDYVRCLECGYEGWRIDTYLDIPLVIRPYGSSQAFASVEEALHAFIQPEILDGPNQYFCERCKKKCDARKGLRFLHFPYLLTLQLKRFDFDYTTMHRIKLNDRMTFPEELDMSTFIDVEDEKSPQTESCTDSGAENEGSCHSDQMSNDFSNDDGVDEGICLETNSGTEKISKSGLEKNSLIYELFSVMVHSGSAAGGHYYACIKSFSDEQWYSFNDQHVSRITQEDIKKTHGGSSGSRGYYSSAFASSTNAYMLIYRLKDPARNAKFLEVDEYPEHIKNLVQKERELEEQEKRQREIERNTCKIKLFCLHPTKQVMMENKLEVHKDKTLKEAVEMAYKMMDLEEVIPLDCCRLVKYDEFHDYLERSYEGEEDTPMGLLLGGVKSTYMFDLLLETRKPDQVFQSYKPGEVMVKVHVVDLKAESVAAPITVRAYLNQTVTEFKQLISKAIHLPAETMRIVLERCYNDLRLLSVSSKTLKAEGFFRSNKVFVESSETLDYQMAFADSHLWKLLDRHANTIRLFVLLPEQSPVSYSKRTAYQKAGGDSGNVDDDCERVKGPVGSLKSVEAILEESTEKLKSLSLQQQQDGDNGDSSKSTETSDFENIESPLNERDSSASVDNRELEQHIQTSDPENFQSEERSDSDVNNDRSTSSVDSDILSSSHSSDTLCNADNAQIPLANGLDSHSITSSRRTKANEGKKETWDTAEEDSGTDSEYDESGKSRGEMQYMYFKAEPYAADEGSGEGHKWLMVHVDKRITLAAFKQHLEPFVGVLSSHFKVFRVYASNQEFESVRLNETLSSFSDDNKITIRLGRALKKGEYRVKVYQLLVNEQEPCKFLLDAVFAKGMTVRQSKEELIPQLREQCGLELSIDRFRLRKKTWKNPGTVFLDYHIYEEDINISSNWEVFLEVLDGVEKMKSMSQLAVLSRRWKPSEMKLDPFQEVVLESSSVDELREKLSEISGIPLDDIEFAKGRGTFPCDISVLDIHQDLDWNPKVSTLNVWPLYICDDGAVIFYRDKTEELMELTDEQRNELMKKESSRLQKTGHRVTYSPRKEKALKIYLDGAPNKDLTQD
B2: VCPIP1 (transfected) (enzyme, UniProt Q96JH7 1-1222)
chain: MSQPPPPPPPLPPPPPPPEAPQTPSSLASAAASGGLLKRRDRRILSGSCPDPKCQARLFFPASGSVSIECTECGQRHEQQQLLGVEEVTDPDVVLHNLLRNALLGVTGAPKKNTELVKVMGLSNYHCKLLSPILARYGMDKQTGRAKLLRDMNQGELFDCALLGDRAFLIEPEHVNTVGYGKDRSGSLLYLHDTLEDIKRANKSQECLIPVHVDGDGHCLVHAVSRALVGRELFWHALRENLKQHFQQHLARYQALFHDFIDAAEWEDIINECDPLFVPPEGVPLGLRNIHIFGLANVLHRPIILLDSLSGMRSSGDYSATFLPGLIPAEKCTGKDGHLNKPICIAWSSSGRNHYIPLVGIKGAALPKLPMNLLPKAWGVPQDLIKKYIKLEEDGGCVIGGDRSLQDKYLLRLVAAMEEVFMDKHGIHPSLVADVHQYFYRRTGVIGVQPEEVTAAAKKAVMDNRLHKCLLCGALSELHVPPEWLAPGGKLYNLAKSTHGQLRTDKNYSFPLNNLVCSYDSVKDVLVPDYGMSNLTACNWCHGTSVRKVRGDGSIVYLDGDRTNSRSTGGKCGCGFKHFWDGKEYDNLPEAFPITLEWGGRVVRETVYWFQYESDSSLNSNVYDVAMKLVTKHFPGEFGSEILVQKVVHTILHQTAKKNPDDYTPVNIDGAHAQRVGDVQGQESESQLPTKIILTGQKTKTLHKEELNMSKTERTIQQNITEQASVMQKRKTEKLKQEQKGQPRTVSPSTIRDGPSSAPATPTKAPYSPTTSKEKKIRITTNDGRQSMVTLKSSTTFFELQESIAREFNIPPYLQCIRYGFPPKELMPPQAGMEKEPVPLQHGDRITIEILKSKAEGGQSAAAHSAHTVKQEDIAVTGKLSSKELQEQAEKEMYSLCLLATLMGEDVWSYAKGLPHMFQQGGVFYSIMKKTMGMADGKHCTFPHLPGKTFVYNASEDRLELCVDAAGHFPIGPDVEDLVKEAVSQVRAEATTRSRESSPSHGLLKLGSGGVVKKKSEQLHNVTAFQGKGHSLGTASGNPHLDPRARETSVVRKHNTGTDFSNSSTKTEPSVFTASSSNSELIRIAPGVVTMRDGRQLDPDLVEAQRKKLQEMVSSIQASMDRHLRDQSTEQSPSDLPQRKTEVVSSSAKSGSLQTGLPESFPLTGGTENLNTETTDGCVADALGAAFATRSKAQRGNSVEELEEMDSQDAEMTNTTEPMDHS

Columns and labels:
[1] = molecular target: T1, OTUD6B (endogenous, ESCC cells) (human (endogenous in KYSE30 and KYSE450)); experiment: co-IP; endogenous proteins in KYSE30 and KYSE450 cells; precipitated with anti-OTUD6B antibody or anti-β-TrCP antibody
[2] = molecular target: Flag-β-TrCP; experiment: co-IP; panel of DUBs (pcDNA3) each co-transfected with β-TrCP into HEK293T; which partner was precipitated is not stated

| binding [1] | binding [2] | Molecule |
| --- | --- | --- |
| binds | – | β-TrCP (endogenous, ESCC cells) (human (endogenous in KYSE30 and KYSE450)) |
| – | binds | B1 |
| – | binds | B2 |
